Reference: PubChem BioAssay AID743454 (Peter MacCallum Cancer Centre, 2014)
In all, the deposit lists about 18,000 reagents; below is a random part of them. In the full data, 450 (2.5%) were called active. 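Single biological run; no consistent viability z cut-off exists, so the class columns, not z-scores, define the calls.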 No sequences are given here.

Test: 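Search for knock-downs that restore vorinostat killing in resistant colon cancer cells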 (primary screen)
Cell system: human HCT116-VR colon cancer cells, selected for vorinostat resistance
Knock-down reagent: siRNA pool against human genes, 40 nM siRNA pool
Duration: vorinostat for 24 h, read-out about 72 h after transfection
Treatment: vorinostat at 2.5 µM final
Measured: 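Two measures, CellTiter-Fluor viability and luminescent caspase 3/7 activity, each as fold change against same-plate mock wells, mean of duplicates, then screen-wide robust z-score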
Direction: viability robust z-score: higher = more viable cells than screen typical; caspase robust z-score: higher = more caspase 3/7 activity than screen typical
Call rule: 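Hits are knock-downs in viability class RV1/RV2 or caspase class CA1/CA2, excluding ones that killed cells in the no-drug cell-count arm; hits then retested with single siRNAs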

With knock-down of SAMD9L, the record shows viability hit class no change; caspase hit class no change; viability robust z-score -0.71; caspase robust z-score -0.16; inactive.
For CCR6, the entry reads viability hit class no change; caspase hit class no change; viability robust z-score -1.5; caspase robust z-score 1; inactive.
PSPH gave viability hit class no change; caspase hit class no change; viability robust z-score -0.84; caspase robust z-score -0.4; inactive.
Silencing of CYP4V2 gave: viability hit class no change; caspase hit class no change; viability robust z-score 0.18; caspase robust z-score -1.12; inactive.
LITAF scored viability hit class no change; caspase hit class no change; viability robust z-score 0.56; caspase robust z-score -0.86; inactive.

Only “viability hit class”, for 2 of the entries above:
CYP4V2 = no change
LITAF = no change

The results go on:
DCST1 scored viability hit class no change; caspase hit class no change; viability robust z-score 0.3; caspase robust z-score -0.52; inactive.
Depletion of TENT5B gave: viability hit class no change; caspase hit class no change; viability robust z-score -0.8; caspase robust z-score 1.55; inactive.
Knock-down of KCNA7 gave: viability hit class no change; caspase hit class no change; viability robust z-score -0.19; caspase robust z-score -1.14; inactive.
Silencing of LCE3C resulted in: viability hit class no change; caspase hit class CA1 (caspase activation); viability robust z-score 0.1; caspase robust z-score 7.81; active.
Depletion of MYT1 came out at: viability hit class no change; caspase hit class no change; viability robust z-score -0.14; caspase robust z-score 0.23; inactive.
Against TEX14, the values are viability hit class no change; caspase hit class no change; viability robust z-score -0.38; caspase robust z-score 1.14; inactive.
After knock-down of GRB14 the results were viability hit class no change; caspase hit class no change; viability robust z-score 0.76; caspase robust z-score -1.16; inactive.
Against COX5A, the entry reads viability hit class no change; caspase hit class no change; viability robust z-score -0.4; caspase robust z-score -0.66; inactive.
Knock-down of RIOX2 came out at: viability hit class no change; caspase hit class no change; viability robust z-score 0.18; caspase robust z-score -0.31; inactive.
